Data on two substances can be found in paper PMC10937711.

Amino acid sequences for entries named in this document (tags omitted).
UniProt Q9Y2J4: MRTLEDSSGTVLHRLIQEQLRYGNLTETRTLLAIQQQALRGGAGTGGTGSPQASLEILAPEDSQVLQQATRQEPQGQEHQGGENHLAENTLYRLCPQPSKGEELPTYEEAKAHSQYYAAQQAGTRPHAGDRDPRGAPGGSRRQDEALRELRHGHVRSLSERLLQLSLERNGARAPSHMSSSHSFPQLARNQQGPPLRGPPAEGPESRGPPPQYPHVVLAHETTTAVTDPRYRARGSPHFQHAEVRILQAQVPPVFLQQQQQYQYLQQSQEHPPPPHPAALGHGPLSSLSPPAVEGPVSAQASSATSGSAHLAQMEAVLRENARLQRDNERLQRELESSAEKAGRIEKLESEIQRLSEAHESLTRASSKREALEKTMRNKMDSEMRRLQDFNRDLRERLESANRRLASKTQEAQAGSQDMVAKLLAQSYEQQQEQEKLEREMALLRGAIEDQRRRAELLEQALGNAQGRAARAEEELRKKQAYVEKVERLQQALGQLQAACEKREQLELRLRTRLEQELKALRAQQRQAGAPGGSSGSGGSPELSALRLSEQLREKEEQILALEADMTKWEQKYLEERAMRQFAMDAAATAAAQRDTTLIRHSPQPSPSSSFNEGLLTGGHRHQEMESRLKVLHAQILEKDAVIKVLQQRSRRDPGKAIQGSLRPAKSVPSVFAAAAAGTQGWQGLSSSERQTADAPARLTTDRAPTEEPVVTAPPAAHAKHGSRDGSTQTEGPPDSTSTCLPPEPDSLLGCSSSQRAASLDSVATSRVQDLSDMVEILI

No constants are given. Whether binding was seen depends on the method and setting. In cells and extracts the contact can be indirect. Some results given as binding are weak or reduced against the parent protein; the word gives no strength.

Experiment [1] concerns the target AMOTL2 in HCT116 cell xenograft tumors (human (endogenous in HCT116)) (UniProt Q9Y2J4). Briefly: co-IP; immunoprecipitation from HCT116 cell xenograft tumors of control (DMSO) mice; which protein was precipitated is not told.
The target is the same in experiment [2]. Put plainly: condition: only tumors of mice treated with XAV939 (20 mg/kg); co-IP; immunoprecipitation from HCT116 cell xenograft tumors of mice dosed with XAV939 (20 mg/kg every 3 days, intraperitoneal).
The next experiment addresses AMOTL2 (human) (UniProt Q9Y2J4). Put plainly: pull-down; SBP-tagged AMOT (WT, truncations, point mutants) or AMOTL2 constructs as bait, RNF166 as prey; plasmids transfected into 293T cells for 48 h; streptavidin pulldown, immunoblot. In general terms: Immunoblotting shows a protein as a band on a membrane.

As to “RNF166 in HCT116 cell xenograft tumors (from UniProt Q96A37 1-237) (enzyme)”, the binding result in experiment [1] was “binds”; in experiment [2], “no binding”.

Consider “RNF166 (from UniProt Q96A37 1-237) (enzyme)”, for which, in the experiment with AMOTL2 (human), the binding result was “binds”.
